Data on one substance can be found in publication PMC10604759.

Chains of the proteins cited; added tags and fusions are not shown.
UniProt O08788: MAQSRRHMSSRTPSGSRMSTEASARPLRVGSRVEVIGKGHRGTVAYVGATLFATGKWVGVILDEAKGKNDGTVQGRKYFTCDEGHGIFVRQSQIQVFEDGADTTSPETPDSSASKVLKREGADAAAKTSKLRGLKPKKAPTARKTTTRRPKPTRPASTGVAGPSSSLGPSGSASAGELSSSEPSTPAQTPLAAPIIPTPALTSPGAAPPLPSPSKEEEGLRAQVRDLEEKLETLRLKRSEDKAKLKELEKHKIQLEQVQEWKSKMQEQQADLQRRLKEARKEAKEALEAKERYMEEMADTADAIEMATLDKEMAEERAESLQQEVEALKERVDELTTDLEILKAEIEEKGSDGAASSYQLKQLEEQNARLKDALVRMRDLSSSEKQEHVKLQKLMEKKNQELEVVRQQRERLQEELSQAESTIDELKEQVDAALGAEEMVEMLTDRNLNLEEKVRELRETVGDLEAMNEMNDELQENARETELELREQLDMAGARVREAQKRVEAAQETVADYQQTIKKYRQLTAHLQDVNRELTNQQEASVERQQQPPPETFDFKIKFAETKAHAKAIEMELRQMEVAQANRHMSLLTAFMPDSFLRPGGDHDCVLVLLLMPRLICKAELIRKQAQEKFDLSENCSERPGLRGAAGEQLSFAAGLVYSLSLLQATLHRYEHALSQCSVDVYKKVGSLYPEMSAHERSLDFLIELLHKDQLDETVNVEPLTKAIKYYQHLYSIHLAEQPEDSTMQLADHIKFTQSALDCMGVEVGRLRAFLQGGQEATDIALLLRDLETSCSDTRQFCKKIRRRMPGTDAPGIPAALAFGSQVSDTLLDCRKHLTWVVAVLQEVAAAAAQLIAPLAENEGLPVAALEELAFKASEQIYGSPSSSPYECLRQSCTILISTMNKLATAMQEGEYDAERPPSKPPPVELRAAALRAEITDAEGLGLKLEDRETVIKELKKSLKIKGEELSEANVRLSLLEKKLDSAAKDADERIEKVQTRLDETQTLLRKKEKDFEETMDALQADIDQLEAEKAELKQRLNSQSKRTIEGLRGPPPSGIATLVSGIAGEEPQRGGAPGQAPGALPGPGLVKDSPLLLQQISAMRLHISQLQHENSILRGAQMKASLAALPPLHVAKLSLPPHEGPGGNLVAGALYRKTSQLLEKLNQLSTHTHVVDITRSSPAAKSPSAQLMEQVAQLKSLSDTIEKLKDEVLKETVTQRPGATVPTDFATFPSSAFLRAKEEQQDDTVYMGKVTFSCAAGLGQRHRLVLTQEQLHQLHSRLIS
UniProt P63168: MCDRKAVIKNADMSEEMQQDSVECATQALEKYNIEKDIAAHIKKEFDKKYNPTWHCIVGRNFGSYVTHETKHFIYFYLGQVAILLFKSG

These are yes or no findings as the source states them, for the method shown. In cells and extracts the contact can be indirect. Some results given as binding are weak or reduced against the parent protein; the word gives no strength.

This assay concerns the target Dynactin1 (mouse (endogenous in AML12)) (UniProt O08788). The experiment in a line: co-IP; endogenous proteins in AML12 cell lysate (cell lysis buffer for CO-IP); 2 ug of the corresponding antibody overnight at 4 °C, magnetic beads 2 h at room temperature, blot; cells treated with or without 5 uM Cd for 6 h.

As to “dynein light chain LC8-type 1 (DYNLL1) (from UniProt P63168 1-89)”, the binding entry was “binds”.
